{
  "sequences": {"note": "Sequences of proteins named here, by UniProt entry; tags and fusion partners are left off.", "UniProt Q9UQE7": "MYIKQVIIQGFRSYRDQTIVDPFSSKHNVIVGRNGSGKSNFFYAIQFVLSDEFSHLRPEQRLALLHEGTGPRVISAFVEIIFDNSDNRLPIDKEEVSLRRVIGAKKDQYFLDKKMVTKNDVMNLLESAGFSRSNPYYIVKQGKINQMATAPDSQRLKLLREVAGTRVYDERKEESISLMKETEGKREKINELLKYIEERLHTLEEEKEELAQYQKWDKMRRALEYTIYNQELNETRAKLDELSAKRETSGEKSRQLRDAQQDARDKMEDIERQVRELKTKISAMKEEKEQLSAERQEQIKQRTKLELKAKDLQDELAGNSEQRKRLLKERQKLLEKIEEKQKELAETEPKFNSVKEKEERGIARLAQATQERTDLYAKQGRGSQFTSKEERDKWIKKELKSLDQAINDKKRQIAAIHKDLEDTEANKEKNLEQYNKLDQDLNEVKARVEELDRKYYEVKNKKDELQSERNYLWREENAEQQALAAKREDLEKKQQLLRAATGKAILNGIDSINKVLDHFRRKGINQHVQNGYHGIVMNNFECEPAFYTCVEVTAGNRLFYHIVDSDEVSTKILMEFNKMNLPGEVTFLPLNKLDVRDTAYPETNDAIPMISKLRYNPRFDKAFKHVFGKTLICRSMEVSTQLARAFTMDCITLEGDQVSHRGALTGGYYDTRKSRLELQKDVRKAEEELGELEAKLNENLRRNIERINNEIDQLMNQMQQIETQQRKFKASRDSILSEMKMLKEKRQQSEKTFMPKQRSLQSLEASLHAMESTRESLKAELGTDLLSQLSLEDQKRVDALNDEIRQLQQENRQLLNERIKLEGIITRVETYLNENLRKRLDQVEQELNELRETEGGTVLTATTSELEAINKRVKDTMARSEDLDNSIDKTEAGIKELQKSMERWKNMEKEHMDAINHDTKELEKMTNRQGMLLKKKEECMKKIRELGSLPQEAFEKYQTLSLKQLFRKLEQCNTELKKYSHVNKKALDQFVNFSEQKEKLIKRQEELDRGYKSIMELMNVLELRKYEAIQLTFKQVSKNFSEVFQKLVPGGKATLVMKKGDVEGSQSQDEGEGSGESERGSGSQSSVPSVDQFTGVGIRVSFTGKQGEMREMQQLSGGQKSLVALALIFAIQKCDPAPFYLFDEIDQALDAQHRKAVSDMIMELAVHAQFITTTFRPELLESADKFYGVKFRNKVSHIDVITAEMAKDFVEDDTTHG"},
  "source": "paper PMC12765388",
  "binders": {"B1": {"name": "STAG3-EGFP (protein, UniProt Q9UJ98 1-1225)", "chain": "MSSPLQRAVGDTKRALSASSSSSASLPFDDRDSNHTSEGNGDSLLADEDTDFEDSLNRNVKKRAAKRPPKTTPVAKHPKKGSRVVHRHSRKQSEPPANDLFNAVKAAKSDMQSLVDEWLDSYKQDQDAGFLELVNFFIQSCGCKGIVTPEMFKKMSNSEIIQHLTEQFNEDSGDYPLIAPGPSWKKFQGSFCEFVRTLVCQCQYSLLYDGFPMDDLISLLTGLSDSQVRAFRHTSTLAAMKLMTSLVKVALQLSVHQDNNQRQYEAERNKGPGQRAPERLESLLEKRKELQEHQEEIEGMMNALFRGVFVHRYRDVLPEIRAICIEEIGCWMQSYSTSFLTDSYLKYIGWTLHDKHREVRLKCVKALKGLYGNRDLTTRLELFTSRFKDRMVSMVMDREYDVAVEAVRLLILILKNMEGVLTDADCESVYPVVYASHRGLASAAGEFLYWKLFYPECEIRMMGGREQRQSPGAQRTFFQLLLSFFVESELHDHAAYLVDSLWDCAGARLKDWEGLTSLLLEKDQNLGDVQESTLIEILVSSARQASEGHPPVGRVTGRKGLTSKERKTQADDRVKLTEHLIPLLPQLLAKFSADAEKVTPLLQLLSCFDLHIYCTGRLEKHLELFLQQLQEVVVKHAEPAVLEAGAHALYLLCNPEFTFFSRADFARSQLVDLLTDRFQQELEELLQSSFLDEDEVYNLAATLKRLSAFYNTHDLTRWELYEPCCQLLQKAVDTGEVPHQVILPALTLVYFSILWTLTHISKSDASQKQLSSLRDRMVAFCELCQSCLSDVDTEIQEQAFVLLSDLLLIFSPQMIVGGRDFLRPLVFFPEATLQSELASFLMDHVFIQPGDLGSGDSQEDHLQIERLHQRRRLLAGFCKLLLYGVLEMDAASDVFKHYNKFYNDYGDIIKETLTRARQIDRSHCSRILLLSLKQLYTELLQEHGPQGLNELPAFIEMRDLARRFALSFGPQQLQNRDLVVMLHKEGIQFSLSELPPAGSSNQPPNLAFLELLSEFSPRLFHQDKQLLLSYLEKCLQHVSQAPGHPWGPVTTYCHSLSPVENTAETSPQVLPSSKRRRVEGPAKPNREDVSSSQEESLQLNSIPPTPTLTSTAVKSRQPLWGLKEMEEEDGSELDFAQGQPVAGTERSRFLGPQYFQTPHNPSGPGLGNQLMRLSLMEEDEEEELEIQDESNEERQDTDMQASSYSSTSERGLDLLDSTELDIEDF"}},
  "biological_target": "SMC3 (human (endogenous in HCT116)) (UniProt Q9UQE7)",
  "assay": "co-IP; co-immunoprecipitation of STAG3-EGFP with SMC3 from doxycycline-induced STAG3-EGFP HCT116 cells",
  "note": "Results are given in words; binding and its absence hold for the method and conditions named. In cells and extracts the contact can be indirect. Some results given as binding are weak or reduced against the parent protein; the word gives no strength. Where a sequence is shown, tags or fusion partners need not be part of it.",
  "data": [
    {"binder": "B1", "values": [
      {"measurement": "binding", "value": "binds"}
    ]}
  ]
}
